The test system of this assay is Salmonella enterica serovar Typhimurium SL1344. The experiment in a line: bacterial growth OD600 after 18 h with compound and polymyxin B; higher = more bacterial growth (less inhibition). The following applies: 50 µM, Mueller-Hinton broth.

The values that follow come from the supplement of paper PMC12889115.

The structures appear in SMILES notation. This is one part of the list. These are raw signals, not scaled to a control.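 Primary screen: polymyxin B was added at a level permeabilizing Salmonella outer membranes while sparing inner membranes. DMSO wells, both with and without polymyxin B, established maximum growth. Plate-to-plate variation meant each plate was ranked on its own, and the lowest-OD600 compounds were selected as hits.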

Consider `NC(=O)C1CCCN(C(=O)CC2(c3ccccc3)CC(=O)N(CCCOc3cccnc3)C2=O)C1` (stereo unspecified), for which, for the setting “polymyxin B 0.75 µg/mL”, the “bacterial growth OD600” value was determined as 0.977. For the compound `COCc1c(C(=O)NC2CCN(Cc3ccccc3)CC2)cnn1-c1nccc(-c2cccs2)n1`, the “bacterial growth OD600” value (polymyxin B 0.75 µg/mL) was 0.933. For `Cc1ccc(CN2CCN(Cc3c(F)cccc3F)CC2CCO)cc1` (stereo unspecified), where the note is “polymyxin B 1 µg/mL”, the “bacterial growth OD600” value is 0.769. `CCCCn1c(CN2CCCC(C(C)=O)C2)cnc1S(=O)(=O)CC1CCC1` (stereo unspecified): the “bacterial growth OD600” value (polymyxin B 1 µg/mL) came out at 0.82. Same read-out and setting: the result for `CC(C)CC(=O)N1CCCC(N2CCN(Cc3ccc4c(c3)OCO4)CC2)C1` (stereo unspecified) reads 0.957. As for `CC(C)CCN(C)c1ccc(C(=O)N2CCC(Oc3cccnc3)CC2)cn1`, under “polymyxin B 0.75 µg/mL”, the “bacterial growth OD600” value was 0.244. Consider `CC(=O)c1cc(CN2CCC(CO)(CCCc3ccccc3)CC2)cs1`, for which the “bacterial growth OD600” value (polymyxin B 1 µg/mL) worked out at 0.952.

With `Cn1ccnc1C1CCCCN1C(=O)CC1(c2ccccc2)CC(=O)N(Cc2cccs2)C1=O` (stereo unspecified), the “bacterial growth OD600” value (polymyxin B 0.75 µg/mL) turned out to be 0.852. Consider `CCn1c(-c2ccccc2F)nc2cc(C(=O)N(C)Cc3ccco3)cc(NC(C)=O)c21`, for which the “bacterial growth OD600” value (polymyxin B 0.75 µg/mL) was found to be 0.846. On to `CCOC(=O)C1(Cc2ccc(OC)cc2)CCN(S(=O)(=O)c2sccc2C)CC1`, for which the “bacterial growth OD600” value (polymyxin B 1 µg/mL) was 0.823. In the case of `Cc1noc(C)c1CC(=O)NCc1nc(NCCCc2ccccc2)c2ccccc2n1`, where the note is “polymyxin B 0.75 µg/mL”, the “bacterial growth OD600” value turned out to be 0.007.

On to `CCOC(=O)C1(CCc2ccccc2)CCCN(Cc2nccn2CC)C1` (stereo unspecified), for which the “bacterial growth OD600” value (polymyxin B 1 µg/mL) is 0.001. As for `CC1CN(C(=O)c2csc3nc(-c4ccc(F)cc4)cn23)CCN1C` (stereo unspecified), the “bacterial growth OD600” value (polymyxin B 0.75 µg/mL) stood at 0.786. With `O=C(c1ccc(-c2ccccc2)c(F)c1)C1CCCN(C(=O)c2ccco2)C1` (stereo unspecified), under “polymyxin B 1 µg/mL”, the “bacterial growth OD600” value was determined as 0.105. Same read-out and setting: the result for `Cc1ccccc1N1CCN(C2CCCN(C(=O)CC3CCCC3)C2)CC1` (stereo unspecified) reads 0.786. The same measure, in the same setting: the result for `CC(C)Cc1noc(-c2ccc(N(C)CC3COCCO3)nc2)n1` (stereo unspecified) reads 0.944.

For `COc1ccc(CCC(=O)N2CCC(CO)(Cc3ccc(Cl)cc3)CC2)cc1`, the “bacterial growth OD600” value (polymyxin B 1 µg/mL) was found to be 0.017. `O=C(Nc1cc(CNC2C3CC4CC(C3)CC2C4)cc(C(=O)N2CCCC2)c1)c1ccccn1` (stereo unspecified): the “bacterial growth OD600” value (polymyxin B 0.75 µg/mL) is 0.736. As to `Cc1ccoc1C(=O)N1CCC2(CCCN(Cc3ccc(F)c(F)c3)C2)C1` (stereo unspecified), the “bacterial growth OD600” value (polymyxin B 1 µg/mL) amounted to 0.703. Same read-out and setting: the result for `COCC1CCCCN1Cc1nc(-c2cc3c(cc2Cl)OCO3)oc1C` (stereo unspecified) reads 1.01. Turning to `COc1ccc(CC2(CCC(=O)NCCC3COc4ccccc4O3)CCC(=O)N2)c(F)c1` (stereo unspecified), the “bacterial growth OD600” value (polymyxin B 0.75 µg/mL) is 0.824.

Take `COC(=O)c1ccc(CN2CCN(CC=C(C)C)C(CCO)C2)cc1` (stereo unspecified): the “bacterial growth OD600” value (polymyxin B 1 µg/mL) was 0.832. Same read-out and setting: the result for `C=C(C)CNC(=O)CCc1nnc(Cc2cc(OC)ccc2OC)o1` reads 0.838; that for `COCCN1CCCC2(CCN(C(=O)c3cc(F)c(F)cc3F)C2)C1=O` (stereo unspecified), 0.941; that for `Fc1cccc(NC2CCCN(Cc3ccc4nsnc4c3)C2)c1` (stereo unspecified), 0.629. For `CC(=O)Nc1ccc(CN2CCC(C(Cc3ccccc3Cl)N(C)C(=O)c3ccco3)CC2)cc1` (stereo unspecified), the “bacterial growth OD600” value (polymyxin B 0.75 µg/mL) turned out to be 0.76. As for `Cc1cccn2c(CN3CCN(C)C[C@@H]3C(C)C)c(C(=O)N(C)CCc3ccccc3)nc12`, the “bacterial growth OD600” value (polymyxin B 1 µg/mL) was found to be 0.992. As to `COc1ccc(-n2ncc3c2CC(C)(C)CC3NC(=O)c2cnsn2)cc1` (stereo unspecified), the “bacterial growth OD600” value (polymyxin B 1 µg/mL) was found to be 0.787. On to `COc1ccc(OC)c(C(=O)N2CCC(n3nccc3NC(=O)CC(C)C)CC2)c1`, for which the “bacterial growth OD600” value (polymyxin B 1 µg/mL) is 0.887. Regarding `COCCN1CCCC2(CCN(C(=O)Nc3ccc(C)cc3)C2)C1=O` (stereo unspecified), for the setting “polymyxin B 0.75 µg/mL”, the “bacterial growth OD600” value was determined as 0.828. `C=CCC(=O)N1CCC(n2nccc2NC(=O)c2ccc3c(c2)OCO3)CC1`: the “bacterial growth OD600” value (polymyxin B 1 µg/mL) stood at 0.863.
